Results taken from publication PMC4990646.
No constants are given. Whether binding was seen depends on the method and setting. Binding calls can cover weak binding; strength is not graded here. Tags and fused reporters may be left off the sequences shown. For some assays here: Binding seen in cells or lysates may run through a third protein.

Key:
MBP-IPD3 (M. truncatula) = biological target: T1, MBP-IPD3 (M. truncatula) (UniProt A7TUE1); test: pull-down; MBP fusion on amylose resin captures purified HIS-tagged MtDELLA; western blot with anti-MBP and anti-HIS; both purified
T1 sequence: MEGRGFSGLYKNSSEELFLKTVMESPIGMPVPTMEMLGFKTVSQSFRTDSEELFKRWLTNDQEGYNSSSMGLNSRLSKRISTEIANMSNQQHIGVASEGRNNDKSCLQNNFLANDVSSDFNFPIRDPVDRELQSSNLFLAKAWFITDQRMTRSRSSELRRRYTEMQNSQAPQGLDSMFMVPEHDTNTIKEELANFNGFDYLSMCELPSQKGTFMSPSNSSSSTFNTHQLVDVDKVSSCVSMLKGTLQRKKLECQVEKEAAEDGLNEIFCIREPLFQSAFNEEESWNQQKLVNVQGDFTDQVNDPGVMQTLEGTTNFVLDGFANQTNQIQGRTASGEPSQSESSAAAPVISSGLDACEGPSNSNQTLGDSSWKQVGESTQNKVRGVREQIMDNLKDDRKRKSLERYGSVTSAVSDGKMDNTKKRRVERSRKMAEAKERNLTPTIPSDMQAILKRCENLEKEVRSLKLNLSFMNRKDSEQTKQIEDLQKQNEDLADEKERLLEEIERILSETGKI

[1] = biological target: T2, IPD3-cYFP (M. truncatula) (UniProt A7TUE1); test: split reporter; BiFC with nYFP and cYFP fusions in Arabidopsis mesophyll protoplasts; confocal microscopy
T2 sequence: T1 sequence

HIS-MtDELLA3 (M. truncatula)
binding (MBP-IPD3 (M. truncatula)): binds

MtDELLA3-nYFP (M. truncatula)
binding [1]: binds
